According to PMC4389229:
No constants are given. Whether binding was seen depends on the method and setting. Binding seen in cells or lysates may run through a third protein. Some entries that bind do so weakly or less than the wild type. Tags and fused reporters may be left off the sequences shown. Each block holds one molecule with its values, some of them ahead of it.

By UniProt entry, the sequences of proteins in these tests, tags left out.
UniProt P24279: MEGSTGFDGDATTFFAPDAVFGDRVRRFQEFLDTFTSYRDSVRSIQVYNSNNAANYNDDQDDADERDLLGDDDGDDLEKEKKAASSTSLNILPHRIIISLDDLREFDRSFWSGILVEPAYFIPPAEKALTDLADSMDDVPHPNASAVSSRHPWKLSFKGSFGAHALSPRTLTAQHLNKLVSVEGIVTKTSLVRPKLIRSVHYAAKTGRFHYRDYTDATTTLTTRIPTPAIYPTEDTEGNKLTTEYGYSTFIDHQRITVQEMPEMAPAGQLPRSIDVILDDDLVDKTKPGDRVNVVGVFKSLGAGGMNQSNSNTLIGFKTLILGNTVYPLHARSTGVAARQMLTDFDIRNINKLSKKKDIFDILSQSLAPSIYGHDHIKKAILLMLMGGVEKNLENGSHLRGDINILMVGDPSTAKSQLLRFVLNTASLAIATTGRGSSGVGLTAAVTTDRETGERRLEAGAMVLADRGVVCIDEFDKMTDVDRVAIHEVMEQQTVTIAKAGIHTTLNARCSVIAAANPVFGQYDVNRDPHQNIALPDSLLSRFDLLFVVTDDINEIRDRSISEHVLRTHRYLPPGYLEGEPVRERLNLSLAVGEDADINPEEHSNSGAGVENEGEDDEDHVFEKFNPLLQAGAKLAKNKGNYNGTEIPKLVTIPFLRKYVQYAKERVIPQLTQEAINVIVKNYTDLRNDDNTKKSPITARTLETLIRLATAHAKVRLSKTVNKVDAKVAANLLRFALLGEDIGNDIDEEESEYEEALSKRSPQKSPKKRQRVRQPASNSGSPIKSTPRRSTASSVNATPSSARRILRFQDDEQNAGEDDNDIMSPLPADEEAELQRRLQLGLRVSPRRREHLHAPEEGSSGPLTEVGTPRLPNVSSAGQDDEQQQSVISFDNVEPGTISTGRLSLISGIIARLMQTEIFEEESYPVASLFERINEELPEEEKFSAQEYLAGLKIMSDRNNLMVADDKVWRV

Biological target: T1, Cmr1-VC (S. cerevisiae) (UniProt Q12510)
T1 sequence: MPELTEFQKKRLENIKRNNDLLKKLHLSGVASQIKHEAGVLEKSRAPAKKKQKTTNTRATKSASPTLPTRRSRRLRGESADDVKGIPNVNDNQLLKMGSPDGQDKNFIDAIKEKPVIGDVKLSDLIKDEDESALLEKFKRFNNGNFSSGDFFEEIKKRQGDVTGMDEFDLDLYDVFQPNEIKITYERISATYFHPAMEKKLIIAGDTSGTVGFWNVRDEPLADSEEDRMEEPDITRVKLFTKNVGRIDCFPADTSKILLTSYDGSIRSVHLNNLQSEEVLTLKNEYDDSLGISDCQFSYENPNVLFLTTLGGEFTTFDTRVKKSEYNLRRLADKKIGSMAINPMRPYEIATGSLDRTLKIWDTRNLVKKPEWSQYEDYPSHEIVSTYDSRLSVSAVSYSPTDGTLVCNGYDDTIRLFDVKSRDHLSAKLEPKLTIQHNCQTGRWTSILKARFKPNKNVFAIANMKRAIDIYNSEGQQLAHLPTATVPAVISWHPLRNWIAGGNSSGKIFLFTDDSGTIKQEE
Assay: split reporter; genome-wide bimolecular fluorescence complementation in living S. cerevisiae: Cmr1-VC query strain crossed to 5,809 VN-fusion strains, Venus fluorescence read by microscopy; Cmr1-VC with Mcm3-VN also imaged before and after 0.05% MMS for 2 h

- binding: binds
B1: Rfc3 (VN fusion) (protein, UniProt P38629 1-340)
chain: MSTSTEKRSKENLPWVEKYRPETLDEVYGQNEVITTVRKFVDEGKLPHLLFYGPPGTGKTSTIVALAREIYGKNYSNMVLELNASDDRGIDVVRNQIKDFASTRQIFSKGFKLIILDEADAMTNAAQNALRRVIERYTKNTRFCVLANYAHKLTPALLSRCTRFRFQPLPQEAIERRIANVLVHEKLKLSPNAEKALIELSNGDMRRVLNVLQSCKATLDNPDEDEISDDVIYECCGAPRPSDLKAVLKSILEDDWGTAHYTLNKVRSAKGLALIDLIEGIVKILEDYELQNEETRVHLLTKLADIEYSISKGGNDQIQGSAVIGAIKASFENETVKANV

- binding: binds
B3: Rfc2 (VN fusion) (protein, UniProt P40348 1-353)
chain: MFEGFGPNKKRKISKLAAEQSLAQQPWVEKYRPKNLDEVTAQDHAVTVLKKTLKSANLPHMLFYGPPGTGKTSTILALTKELYGPDLMKSRILELNASDERGISIVREKVKNFARLTVSKPSKHDLENYPCPPYKIIILDEADSMTADAQSALRRTMETYSGVTRFCLICNYVTRIIDPLASRCSKFRFKALDASNAIDRLRFISEQENVKCDDGVLERILDISAGDLRRGITLLQSASKGAQYLGDGKNITSTQVEELAGVVPHDILIEIVEKVKSGDFDEIKKYVNTFMKSGWSAASVVNQLHEYYITNDNFDTNFKNQISWLLFTTDSRLNNGTNEHIQLLNLLVKISQL

The remaining lines, values behind:

Molecule: Mcm3-VN (from UniProt P24279 1-971)
- binding: binds

B2: Pri1 (VN fusion) (protein, UniProt P10363 1-409)
chain: MTNSVKTNGPSSSDMEYYYKSLYPFKHIFNWLNHSPKPSRDMINREFAMAFRSGAYKRYNSFNSVQDFKAQIEKANPDRFEIGAIYNKPPRERDTLLKSELKALEKELVFDIDMDDYDAFRTCCSGAQVCSKCWKFISLAMKITNTALREDFGYKDFIWVFSGRRGAHCWVSDKRARALTDVQRRNVLDYVNVIRDRNTDKRLALKRPYHPHLARSLEQLKPFFVSIMLEEQNPWEDDQHAIQTLLPALYDKQLIDSLKKYWLDNPRRSSKEKWNDIDQIATSLFKGPKQDSHIIKLRECKEDLVLMTLYPKLDVEVTKQTIHLLKAPFCIHPATGNVCVPIDESFAPEKAPKLIDLQTEMEKNNDVSLTALQPFINQFQAYVSSLLKNELGSVKREREDDDEPASLDF
- binding: binds
